These are yes or no findings as the source states them, for the method shown. In cells and extracts the contact can be indirect. A yes stands for co-enrichment or nearness to the bait. Other partners may have been found.
Target: Flag-Lgals3 (UniProt P17931)
Assay: affinity purification with mass spectrometry; whole-cell lysates immunoprecipitated with Flag antibodies; products analysed by mass spectrometry (IP-MS); cells not named

Chains of the proteins cited; added tags and fusions are not shown.
UniProt P17931: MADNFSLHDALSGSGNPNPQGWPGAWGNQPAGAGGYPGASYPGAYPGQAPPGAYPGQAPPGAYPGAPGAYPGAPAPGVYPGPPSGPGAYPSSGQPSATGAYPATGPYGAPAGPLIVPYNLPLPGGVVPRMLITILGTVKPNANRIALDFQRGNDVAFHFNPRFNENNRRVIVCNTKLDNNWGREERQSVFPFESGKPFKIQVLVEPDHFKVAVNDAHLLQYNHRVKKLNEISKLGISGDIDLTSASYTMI

binding | Binder
binds | Abhd5 (protein, UniProt Q8WTS1 1-349) MAAEEEEVDSADTGERSGWLTGWLPTWCPTSISHLKEAEEKMLKCVPCTYKKEPVRISNGNKIWTLKFSHNISNKTPLVLLHGFGGGLGLWALNFGDLCTNRPVYAFDLLGFGRSSRPRFDSDAEEVENQFVESIEEWRCALGLDKMILLGHNLGGFLAAAYSLKYPSRVNHLILVEPWGFPERPDLADQDRPIPVWIRALGAALTPFNPLAGLRIAGPFGLSLVQRLRPDFKRKYSSMFEDDTVTEYIYHCNVQTPSGETAFKNMTIPYGWAKRPMLQRIGKMHPDIPVSVIFGARSCIDGNSGTSIQSLRPHSYVKTIAILGAGHYVYADQPEEFNQKVKEICDTVD
binds | Slc16A7 (protein, UniProt O60669 1-478) MPPMPSAPPVHPPPDGGWGWIVVGAAFISIGFSYAFPKAVTVFFKEIQQIFHTTYSEIAWISSIMLAVMYAGGPVSSVLVNKYGSRPVVIAGGLLCCLGMVLASFSSSVVQLYLTMGFITGLGLAFNLQPALTIIGKYFYRKRPMANGLAMAGSPVFLSSLAPFNQYLFNTFGWKGSFLILGSLLLNACVAGSLMRPLGPNQTTSKSKNKTGKTEDDSSPKKIKTKKSTWEKVNKYLDFSLFKHRGFLIYLSGNVIMFLGFFAPIIFLAPYAKDQGIDEYSAAFLLSVMAFVDMFARPSVGLIANSKYIRPRIQYFFSFAIMFNGVCHLLCPLAQDYTSLVLYAVFFGLGFGSVSSVLFETLMDLVGAPRFSSAVGLVTIVECGPVLLGPPLAGKLVDLTGEYKYMYMSCGAIVVAASVWLLIGNAINYRLLAKERKEENARQKTRESEPLSKSKHSEDVNVKVSNAQSVTSERETNI

Source: publication PMC11947994
